Taken from: PubChem BioAssay AID504804 (Drosophila RNAi Screening Center, 2011)
In all, the deposit lists about 19,000 reagents; this is a random part of those with a known target gene and a result. Over the whole deposit, 47 (0.25%) are marked active. 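Signals are raw, not normalised; exact z-scores behind calls not deposited; actives needed confirmation, so some wells reaching 2 SD are inactive.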 Reagent sequences are not shown.

- Purpose: 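Knock-downs shielding fly cells from apoptosis caused by DNA damage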 (primary screen)
- Cell system: Drosophila Kc cells
- Reagents: long dsRNA against Drosophila genes, 0.5 µg dsRNA per well
- Duration: 96 h (48 h knock-down, then 48 h drug)
- Treatment: doxorubicin 5 µg/ml for 48 h, added 48 h after dsRNA
- Measurement: 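Luminescent ATP counts per replicate, not normalised, reflecting viable cells after 48 h dsRNA knock-down followed by 48 h of 5 µg/ml doxorubicin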
- Reading the numbers: raw ATP luminescence: higher = more viable cells, protection from doxorubicin
- Rule for the call: 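Active when both duplicate wells lie at least 2 SD above the plate mean and protection is confirmed by rescreening and independent dsRNAs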

{"predicted target": "danr", "dsRNA": "DRSC14651", "raw ATP luminescence, replicate 1": 64610, "raw ATP luminescence, replicate 2": 71240, "Call": "inactive"}
{"predicted target": "CG1695", "dsRNA": "DRSC20538", "raw ATP luminescence, replicate 1": 4.00e5, "raw ATP luminescence, replicate 2": 4.27e5, "Call": "inactive"}
{"predicted target": "CG30291", "dsRNA": "DRSC03842", "raw ATP luminescence, replicate 1": 61190, "raw ATP luminescence, replicate 2": 64740, "Call": "inactive"}
{"predicted target": "Gpat4", "dsRNA": "DRSC04345", "raw ATP luminescence, replicate 1": 50957, "raw ATP luminescence, replicate 2": 55330, "Call": "inactive"}
{"predicted target": "CG14411", "dsRNA": "DRSC19597", "raw ATP luminescence, replicate 1": 3.20e5, "raw ATP luminescence, replicate 2": 2.86e5, "Call": "inactive"}
{"predicted target": "TwdlU", "dsRNA": "DRSC12224", "raw ATP luminescence, replicate 1": 80853, "raw ATP luminescence, replicate 2": 58350, "Call": "inactive"}
{"predicted target": "CG32027 (retired record)", "dsRNA": "DRSC09571", "raw ATP luminescence, replicate 1": 81777, "raw ATP luminescence, replicate 2": 78773, "Call": "inactive"}
{"predicted target": "CG9674", "dsRNA": "DRSC11088", "raw ATP luminescence, replicate 1": 26023, "raw ATP luminescence, replicate 2": 20313, "Call": "inactive"}
{"predicted target": "CG9674", "dsRNA": "DRSC11089", "raw ATP luminescence, replicate 1": 67650, "raw ATP luminescence, replicate 2": 53220, "Call": "inactive"}
{"predicted target": "Pcmt", "dsRNA": "DRSC12363", "raw ATP luminescence, replicate 1": 57263, "raw ATP luminescence, replicate 2": 56250, "Call": "inactive"}
{"predicted target": "CG9483", "dsRNA": "DRSC03226", "raw ATP luminescence, replicate 1": 33017, "raw ATP luminescence, replicate 2": 33973, "Call": "inactive"}
{"predicted target": "l(3)76BDm", "dsRNA": "DRSC11047", "raw ATP luminescence, replicate 1": 22600, "raw ATP luminescence, replicate 2": 23707, "Call": "inactive"}

2 neighbouring reagents from above, for reference:
{"predicted target": "CG9674", "dsRNA": "DRSC11089", "raw ATP luminescence, replicate 1": 67650, "raw ATP luminescence, replicate 2": 53220, "Call": "inactive"}
{"predicted target": "Pcmt", "dsRNA": "DRSC12363", "raw ATP luminescence, replicate 1": 57263, "raw ATP luminescence, replicate 2": 56250, "Call": "inactive"}
